This is one part of the list. Values are raw readings; no control value is given beside them.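 First-pass screen: polymyxin B was added at a level that permeabilizes the Salmonella outer membrane while sparing the inner membrane. DMSO wells, with and without polymyxin B, defined maximum growth. Because plates differed from one another, each plate's data were ranked separately and the compounds with the lowest OD600 were carried forward as hits.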
System: Salmonella enterica serovar Typhimurium SL1344
Assay: bacterial growth OD600 after 18 h with compound and polymyxin B; higher = more bacterial growth (less inhibition)
Conditions: 50 µM, Mueller-Hinton broth

Row | Structure (SMILES) | bacterial growth OD600 (polymyxin B 1 µg/mL) | bacterial growth OD600 (polymyxin B 0.75 µg/mL)
1 | CCOC(=O)C1(Cc2ccccc2)CCN(Cc2ccc(OC)c(OCC)c2)CC1 | 0.849 | –
2 | O=C(c1ccc(N2CCOCC2)nc1)N1CCCC(c2ccccc2)CC1 (configuration not stated) | 1.05 | –
3 | COc1cccc(C(=O)N2CCc3c(cnc(C)c3CNC(=O)Cc3ccsc3)C2)c1OC | – | 0.757
4 | CN(Cc1ccccn1)C(=O)C1CCCN(C2CCN(Cc3ccccc3)CC2)C1 (configuration not stated) | – | 0.707
5 | FC(F)Oc1ccc(CN2CCOc3ccc(CN4CCC(Oc5cccnc5)CC4)cc3C2)cc1 | – | 0.402
6 | O=C1CC(NCc2ncc[nH]2)CN1Cc1cccc2ccccc12 (configuration not stated) | 0.924 | –
7 | c1ccc(OCc2noc(-c3ccc(NCc4cccnc4)nc3)n2)cc1 | 0.704 | –
8 | CNC(=O)CC(c1ccccc1)c1ccccc1Cl (configuration not stated) | 0.776 | –
9 | O=C(NCCN1CCOCC1)c1ccc(N2CCC(NCc3cccc(-n4cccn4)c3)CC2)cc1 | – | 0.821
10 | COCc1ccc(CN2CCCC(CNS(=O)(=O)N(C)C)C2)o1 (configuration not stated) | – | 0.813
11 | Cc1ccccc1C1(CC(=O)N2CCN(C3CCCC3)CC2)CC(=O)N(Cc2cccnc2)C1=O (configuration not stated) | – | 0.778
12 | CSc1ccccc1C(=O)N1CCOc2ccc(CN3CCN(c4ccccc4)CC3)cc2C1 | – | 0.007
13 | O=C([C@H]1C[C@@H]2C=C[C@H]1C2)N1CCc2onc(-c3cccc(F)c3)c2C1 | – | 0.24
14 | CC(=O)c1cccc(OCc2cc(C(=O)N(C)CC3CCCCO3)no2)c1 (configuration not stated) | 0.939 | –
15 | COc1ccc(CN2C(=O)O[C@@H]3CN(Cc4ccc(C)s4)C[C@@H]32)cc1OC | – | 0.721
16 | COCCN(C)C(=O)c1coc(COc2cccc(F)c2)n1 | 1.02 | –

Row | Structure (SMILES) | bacterial growth OD600 (polymyxin B 1 µg/mL) | bacterial growth OD600 (polymyxin B 0.75 µg/mL)
17 | O=C(CCc1ccc(F)c(F)c1)NC1CCCN(CCc2ccccc2)C1 (configuration not stated) | 0.773 | –
18 | Cc1ccccc1CCN1CCC(CN(C(=O)CN2CCOC2=O)C2CCCC2)CC1 | 0.844 | –
19 | COc1ccc(OC)c(C2CCN(Cc3nc(-c4ccc5c(c4)OCO5)no3)C2)c1 (configuration not stated) | 0.856 | –
20 | COc1ccc(NC2CCCN(C(=O)CSc3ccccc3)C2)cc1OC (configuration not stated) | 0.843 | –
21 | CCOC(=O)C1CCN(C2CCN(c3ccc(C(=O)NCc4ccccc4F)cc3)CC2)CC1 | – | 0.759
22 | O=C(NCc1cccc(F)c1F)C1CCC(=O)N(C2CC2)C1 (configuration not stated) | 0.838 | –
23 | OCCC1CN(Cc2cccn2-c2nccs2)CCN1Cc1ccccc1F (configuration not stated) | 1.09 | –
24 | COc1cccc(-c2noc(-c3ccc(NC(C)(C)CO)nc3)n2)c1OC | – | 0.537
25 | Clc1cccnc1N1CCC(C2CCN(Cc3cccnc3)CC2)C1 (configuration not stated) | – | 0.641
26 | C#CCN(Cc1ccco1)C(=O)CCC1(Cc2cc(OC)ccc2F)CCC(=O)N1 (configuration not stated) | – | 0.859
27 | CSCC(=O)NC1CC(C)(C)Cc2c1cnn2-c1ccc(F)cc1 (configuration not stated) | – | 0.551
28 | CC(C)(C)NC(=O)C1CCCN(C2CCN(Cc3ccccc3)CC2)C1 (configuration not stated) | – | 0.949
29 | CC(=O)N[C@@H]1c2ccccc2C2(CCN(C(=O)c3n[nH]c4ccccc34)CC2)[C@H]1OCc1ccccc1 | – | 0.73
30 | Cc1cc(C)cc(-n2ncc3c2CCCC3NC(=O)C(C)(C)O)c1 (configuration not stated) | – | 0.404
31 | O=C(c1coc(COc2ccc3c(c2)OCO3)n1)N1CCCC1 | 0.991 | –
32 | CCNC(=O)c1cn(C(C)CC)cc(C(=O)N2CCN(c3cccc(C(F)(F)F)c3)CC2)c1=O (configuration not stated) | – | 0.79

Source: the supplement of paper PMC12889115
